Assay [1] addresses Strep-tagged NS5 protein of Powassan virus (POWV), strain LB (Powassan virus (strain LB)) (UniProt Q04538). The assay is described as follows: affinity purification with mass spectrometry.
Assay [2] deals with NS5 protein of tick-borne encephalitis virus (TBEV), Hypr strain, from infected cells (tick-borne encephalitis virus (Hypr strain)) (UniProt Q01299). Kind of assay: affinity purification with mass spectrometry.

By UniProt entry, the sequences of proteins in these tests, tags left out. Residues count along the entry.
UniProt Q04538, residues 2513-3415: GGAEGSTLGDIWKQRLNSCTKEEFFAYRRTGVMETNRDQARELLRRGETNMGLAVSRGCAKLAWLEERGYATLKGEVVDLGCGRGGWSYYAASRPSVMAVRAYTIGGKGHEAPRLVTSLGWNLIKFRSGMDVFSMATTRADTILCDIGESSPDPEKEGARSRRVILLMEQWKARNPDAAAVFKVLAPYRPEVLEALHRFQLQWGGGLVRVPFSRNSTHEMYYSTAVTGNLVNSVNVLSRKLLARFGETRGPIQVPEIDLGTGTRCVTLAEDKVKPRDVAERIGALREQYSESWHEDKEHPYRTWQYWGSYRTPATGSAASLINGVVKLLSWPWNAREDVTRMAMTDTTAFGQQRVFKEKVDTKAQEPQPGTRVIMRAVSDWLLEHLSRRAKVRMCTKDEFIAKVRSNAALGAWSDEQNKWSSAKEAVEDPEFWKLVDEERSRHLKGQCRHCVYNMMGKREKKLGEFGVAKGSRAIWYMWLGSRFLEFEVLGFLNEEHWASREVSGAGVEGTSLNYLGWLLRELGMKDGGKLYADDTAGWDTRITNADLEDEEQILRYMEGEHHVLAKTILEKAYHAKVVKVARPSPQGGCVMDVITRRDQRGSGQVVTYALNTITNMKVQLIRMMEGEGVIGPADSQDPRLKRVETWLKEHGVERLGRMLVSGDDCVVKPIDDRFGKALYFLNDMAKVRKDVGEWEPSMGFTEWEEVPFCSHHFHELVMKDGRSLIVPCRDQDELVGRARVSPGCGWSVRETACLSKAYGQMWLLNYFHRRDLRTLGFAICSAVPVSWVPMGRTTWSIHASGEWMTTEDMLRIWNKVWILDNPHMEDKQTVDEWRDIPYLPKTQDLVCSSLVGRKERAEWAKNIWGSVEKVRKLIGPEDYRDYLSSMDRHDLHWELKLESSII
UniProt Q01299, residues 2512-3414: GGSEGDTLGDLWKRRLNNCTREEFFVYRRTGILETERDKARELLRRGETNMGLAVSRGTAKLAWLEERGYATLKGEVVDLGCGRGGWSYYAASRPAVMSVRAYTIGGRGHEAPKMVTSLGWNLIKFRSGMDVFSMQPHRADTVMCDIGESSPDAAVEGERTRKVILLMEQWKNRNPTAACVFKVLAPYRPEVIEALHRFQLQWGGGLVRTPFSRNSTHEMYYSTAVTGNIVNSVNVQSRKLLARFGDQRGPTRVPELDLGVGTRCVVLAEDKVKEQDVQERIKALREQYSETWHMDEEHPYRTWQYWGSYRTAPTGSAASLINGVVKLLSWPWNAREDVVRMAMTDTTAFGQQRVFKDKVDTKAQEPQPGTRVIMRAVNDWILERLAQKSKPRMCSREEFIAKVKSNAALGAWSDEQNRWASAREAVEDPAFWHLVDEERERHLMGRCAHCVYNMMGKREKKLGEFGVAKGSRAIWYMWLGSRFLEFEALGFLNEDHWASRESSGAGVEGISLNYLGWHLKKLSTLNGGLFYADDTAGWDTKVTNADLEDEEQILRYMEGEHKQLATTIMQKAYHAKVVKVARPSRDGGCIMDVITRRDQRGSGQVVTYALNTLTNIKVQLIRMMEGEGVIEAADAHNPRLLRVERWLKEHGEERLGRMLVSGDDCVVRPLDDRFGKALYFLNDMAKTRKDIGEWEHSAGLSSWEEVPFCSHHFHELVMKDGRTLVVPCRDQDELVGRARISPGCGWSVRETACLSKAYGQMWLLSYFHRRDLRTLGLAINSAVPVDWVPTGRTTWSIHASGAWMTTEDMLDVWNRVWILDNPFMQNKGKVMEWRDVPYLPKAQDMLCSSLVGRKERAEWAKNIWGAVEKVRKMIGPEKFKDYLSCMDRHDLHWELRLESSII
UniProt O14980: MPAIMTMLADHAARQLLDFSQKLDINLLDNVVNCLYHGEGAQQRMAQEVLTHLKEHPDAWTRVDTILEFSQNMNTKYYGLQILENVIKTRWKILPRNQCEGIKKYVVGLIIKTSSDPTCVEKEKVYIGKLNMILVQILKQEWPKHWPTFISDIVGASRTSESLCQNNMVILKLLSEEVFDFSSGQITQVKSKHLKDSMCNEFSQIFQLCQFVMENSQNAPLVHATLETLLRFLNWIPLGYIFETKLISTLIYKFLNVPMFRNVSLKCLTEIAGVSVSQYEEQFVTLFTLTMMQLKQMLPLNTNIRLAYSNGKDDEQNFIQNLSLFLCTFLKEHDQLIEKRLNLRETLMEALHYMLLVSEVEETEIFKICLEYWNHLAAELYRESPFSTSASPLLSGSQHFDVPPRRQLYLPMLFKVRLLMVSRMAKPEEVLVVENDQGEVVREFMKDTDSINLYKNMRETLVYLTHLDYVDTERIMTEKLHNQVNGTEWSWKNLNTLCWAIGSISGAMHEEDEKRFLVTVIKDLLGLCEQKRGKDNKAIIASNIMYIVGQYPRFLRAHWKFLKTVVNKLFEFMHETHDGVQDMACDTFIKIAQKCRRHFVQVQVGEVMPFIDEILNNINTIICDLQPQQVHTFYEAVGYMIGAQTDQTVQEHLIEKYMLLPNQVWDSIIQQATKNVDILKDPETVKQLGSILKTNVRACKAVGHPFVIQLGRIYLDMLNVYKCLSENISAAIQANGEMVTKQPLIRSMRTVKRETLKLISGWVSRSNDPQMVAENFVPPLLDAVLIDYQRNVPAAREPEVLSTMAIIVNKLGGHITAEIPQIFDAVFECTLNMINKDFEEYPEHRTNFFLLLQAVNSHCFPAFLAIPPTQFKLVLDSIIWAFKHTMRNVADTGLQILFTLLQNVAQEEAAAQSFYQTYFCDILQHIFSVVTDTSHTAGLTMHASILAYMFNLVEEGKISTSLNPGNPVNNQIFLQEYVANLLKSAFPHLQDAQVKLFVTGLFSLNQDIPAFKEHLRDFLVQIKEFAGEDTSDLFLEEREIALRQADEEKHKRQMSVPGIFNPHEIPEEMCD
UniProt Q14974: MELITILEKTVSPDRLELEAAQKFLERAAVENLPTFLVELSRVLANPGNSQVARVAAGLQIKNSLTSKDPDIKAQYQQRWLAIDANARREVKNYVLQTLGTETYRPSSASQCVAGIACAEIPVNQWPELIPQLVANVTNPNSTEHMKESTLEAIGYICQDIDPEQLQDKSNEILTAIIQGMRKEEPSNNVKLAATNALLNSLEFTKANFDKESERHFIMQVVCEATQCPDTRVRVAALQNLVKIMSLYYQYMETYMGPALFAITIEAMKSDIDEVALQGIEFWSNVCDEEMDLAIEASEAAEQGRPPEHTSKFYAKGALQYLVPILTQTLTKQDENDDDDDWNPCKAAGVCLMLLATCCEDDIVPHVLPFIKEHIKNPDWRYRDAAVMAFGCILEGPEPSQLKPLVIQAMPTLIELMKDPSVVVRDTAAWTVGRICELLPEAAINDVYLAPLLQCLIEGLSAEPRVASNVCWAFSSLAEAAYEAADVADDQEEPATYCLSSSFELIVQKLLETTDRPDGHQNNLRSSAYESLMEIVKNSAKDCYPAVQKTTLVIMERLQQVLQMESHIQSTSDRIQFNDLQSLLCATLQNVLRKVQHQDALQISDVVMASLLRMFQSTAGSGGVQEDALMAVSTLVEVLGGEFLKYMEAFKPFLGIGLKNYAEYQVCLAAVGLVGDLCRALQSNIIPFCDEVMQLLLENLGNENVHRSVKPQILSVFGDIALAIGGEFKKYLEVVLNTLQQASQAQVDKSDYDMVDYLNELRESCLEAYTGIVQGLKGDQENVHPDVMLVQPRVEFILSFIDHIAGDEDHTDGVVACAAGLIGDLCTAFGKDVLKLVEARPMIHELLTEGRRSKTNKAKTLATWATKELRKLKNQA
UniProt O00165: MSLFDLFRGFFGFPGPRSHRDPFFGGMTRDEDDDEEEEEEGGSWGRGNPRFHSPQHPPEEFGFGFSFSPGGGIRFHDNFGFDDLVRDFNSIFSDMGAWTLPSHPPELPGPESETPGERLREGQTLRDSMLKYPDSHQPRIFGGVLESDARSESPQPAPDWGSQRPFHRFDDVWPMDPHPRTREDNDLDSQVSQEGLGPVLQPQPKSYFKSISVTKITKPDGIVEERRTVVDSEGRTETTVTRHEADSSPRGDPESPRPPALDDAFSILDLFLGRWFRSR
UniProt P57678: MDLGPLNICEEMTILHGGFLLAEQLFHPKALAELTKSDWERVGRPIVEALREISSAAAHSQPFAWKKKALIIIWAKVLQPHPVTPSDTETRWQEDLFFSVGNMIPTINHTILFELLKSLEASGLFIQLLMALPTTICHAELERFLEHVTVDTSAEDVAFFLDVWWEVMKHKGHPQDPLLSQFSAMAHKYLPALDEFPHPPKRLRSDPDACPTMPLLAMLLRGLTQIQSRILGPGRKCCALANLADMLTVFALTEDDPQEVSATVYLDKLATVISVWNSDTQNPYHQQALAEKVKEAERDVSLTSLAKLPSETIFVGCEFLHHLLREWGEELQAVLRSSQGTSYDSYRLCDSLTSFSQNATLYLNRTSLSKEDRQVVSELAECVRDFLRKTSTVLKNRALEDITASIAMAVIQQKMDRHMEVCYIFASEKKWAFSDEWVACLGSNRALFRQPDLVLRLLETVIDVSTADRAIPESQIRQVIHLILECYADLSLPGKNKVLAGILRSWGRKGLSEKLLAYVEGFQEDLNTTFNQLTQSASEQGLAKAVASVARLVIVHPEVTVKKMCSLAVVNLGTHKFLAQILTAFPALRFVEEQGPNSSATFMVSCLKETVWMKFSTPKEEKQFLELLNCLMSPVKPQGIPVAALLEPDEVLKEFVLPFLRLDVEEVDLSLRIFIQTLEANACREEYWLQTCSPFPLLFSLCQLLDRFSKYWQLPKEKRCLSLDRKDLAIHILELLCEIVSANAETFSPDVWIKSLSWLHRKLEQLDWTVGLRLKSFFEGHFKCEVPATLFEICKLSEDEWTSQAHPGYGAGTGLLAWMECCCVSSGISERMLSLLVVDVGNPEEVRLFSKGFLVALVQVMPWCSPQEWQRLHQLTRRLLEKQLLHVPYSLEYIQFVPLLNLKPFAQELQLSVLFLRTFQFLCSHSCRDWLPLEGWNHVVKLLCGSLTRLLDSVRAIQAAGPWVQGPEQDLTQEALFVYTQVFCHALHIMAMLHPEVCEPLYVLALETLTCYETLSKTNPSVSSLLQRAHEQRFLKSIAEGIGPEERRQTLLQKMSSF
UniProt P29597: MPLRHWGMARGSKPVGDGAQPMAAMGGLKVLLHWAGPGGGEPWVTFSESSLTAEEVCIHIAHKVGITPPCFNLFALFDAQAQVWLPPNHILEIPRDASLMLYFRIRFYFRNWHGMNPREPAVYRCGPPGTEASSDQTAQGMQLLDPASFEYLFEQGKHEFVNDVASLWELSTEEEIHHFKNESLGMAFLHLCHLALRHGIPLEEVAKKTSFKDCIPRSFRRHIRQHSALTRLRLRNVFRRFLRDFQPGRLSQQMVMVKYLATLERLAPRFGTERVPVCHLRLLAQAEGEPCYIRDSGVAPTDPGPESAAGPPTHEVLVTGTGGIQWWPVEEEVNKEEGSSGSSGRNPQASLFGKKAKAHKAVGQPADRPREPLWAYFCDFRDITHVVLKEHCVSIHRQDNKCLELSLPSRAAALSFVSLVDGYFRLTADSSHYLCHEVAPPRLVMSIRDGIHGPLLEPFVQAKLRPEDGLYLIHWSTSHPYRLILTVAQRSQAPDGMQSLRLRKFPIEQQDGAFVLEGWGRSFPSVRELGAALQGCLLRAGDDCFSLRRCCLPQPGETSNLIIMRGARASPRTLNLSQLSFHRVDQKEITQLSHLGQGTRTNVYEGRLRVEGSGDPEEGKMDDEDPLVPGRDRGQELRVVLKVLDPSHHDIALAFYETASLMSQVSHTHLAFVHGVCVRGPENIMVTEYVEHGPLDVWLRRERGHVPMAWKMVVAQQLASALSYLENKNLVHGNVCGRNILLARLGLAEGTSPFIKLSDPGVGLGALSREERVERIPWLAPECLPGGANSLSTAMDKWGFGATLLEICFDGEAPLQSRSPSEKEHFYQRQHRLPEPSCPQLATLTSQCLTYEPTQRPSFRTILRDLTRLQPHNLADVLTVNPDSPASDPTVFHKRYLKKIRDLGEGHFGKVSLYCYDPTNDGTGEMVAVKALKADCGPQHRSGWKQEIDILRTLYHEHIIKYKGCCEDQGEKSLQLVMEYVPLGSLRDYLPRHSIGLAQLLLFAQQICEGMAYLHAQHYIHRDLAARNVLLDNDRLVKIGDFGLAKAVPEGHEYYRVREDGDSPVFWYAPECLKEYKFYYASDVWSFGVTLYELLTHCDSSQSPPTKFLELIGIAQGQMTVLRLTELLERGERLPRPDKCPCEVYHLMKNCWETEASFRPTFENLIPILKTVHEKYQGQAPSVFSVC
UniProt Q16637: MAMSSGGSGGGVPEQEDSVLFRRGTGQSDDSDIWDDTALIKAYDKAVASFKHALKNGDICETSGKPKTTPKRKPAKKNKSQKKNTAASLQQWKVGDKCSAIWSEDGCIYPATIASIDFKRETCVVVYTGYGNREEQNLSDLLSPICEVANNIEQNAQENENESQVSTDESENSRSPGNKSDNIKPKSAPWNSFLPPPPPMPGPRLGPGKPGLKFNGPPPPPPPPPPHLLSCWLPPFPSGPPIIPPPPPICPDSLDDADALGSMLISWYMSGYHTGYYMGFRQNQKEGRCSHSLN

This note sets out measurements from publication PMC13595970.

Results are given in words; binding and its absence hold for the method and conditions named. Binding seen in cells or lysates may run through a third protein. These calls come from enrichment with a bait or labelling near it, and not all partners need be listed. No binding means not detected with the bait.

With ATRX (from UniProt P46100 1-2492), the binding result in assay [1] and in assay [2] was “binds” in each case.
Consider “CRM1 (also called Exportin-1 [XPO1]) (from UniProt O14980 1-1071)”, for which the binding entry in assay [2] is reported as “binds”.
Turning to PHAX (from UniProt Q9H814 1-394), the results for the binding entry in assay [1] and in assay [2] were “no binding” and “binds”, respectively.
Turning to β-importin1 (from UniProt Q14974 1-876), in assay [2], the binding result is reported as “no binding”.
As for UBR5 (from UniProt O95071 1-2799), in assay [2], the binding entry is given as “binds”.
As to HAX1 (from UniProt O00165 1-279), the binding entry is given as “no binding” in assay [1] and “binds” in assay [2].
In the case of GEMIN4 (from UniProt P57678 1-1058), the binding entry in assay [2] is reported as “binds”.
Turning to TYK2 (from UniProt P29597 1-1187), the binding result in assay [1] and in assay [2] was “binds” each time.
Regarding SMN1 (from UniProt Q16637 1-294), the binding entry in assay [2] is recorded as “binds”.

B1: SART3 (protein, UniProt Q15020 1-963)
chain: MATAAETSASEPEAESKAGPKADGEEDEVKAARTRRKVLSRAVAAATYKTMGPAWDQQEEGVSESDGDEYAMASSAESSPGEYEWEYDEEEEKNQLEIERLEEQLSINVYDYNCHVDLIRLLRLEGELTKVRMARQKMSEIFPLTEELWLEWLHDEISMAQDGLDREHVYDLFEKAVKDYICPNIWLEYGQYSVGGIGQKGGLEKVRSVFERALSSVGLHMTKGLALWEAYREFESAIVEAARLEKVHSLFRRQLAIPLYDMEATFAEYEEWSEDPIPESVIQNYNKALQQLEKYKPYEEALLQAEAPRLAEYQAYIDFEMKIGDPARIQLIFERALVENCLVPDLWIRYSQYLDRQLKVKDLVLSVHNRAIRNCPWTVALWSRYLLAMERHGVDHQVISVTFEKALNAGFIQATDYVEIWQAYLDYLRRRVDFKQDSSKELEELRAAFTRALEYLKQEVEERFNESGDPSCVIMQNWARIEARLCNNMQKARELWDSIMTRGNAKYANMWLEYYNLERAHGDTQHCRKALHRAVQCTSDYPEHVCEVLLTMERTEGSLEDWDIAVQKTETRLARVNEQRMKAAEKEAALVQQEEEKAEQRKRARAEKKALKKKKKIRGPEKRGADEDDEKEWGDDEEEQPSKRRRVENSIPAAGETQNVEVAAGPAGKCAAVDVEPPSKQKEKAASLKRDMPKVLHDSSKDSITVFVSNLPYSMQEPDTKLRPLFEACGEVVQIRPIFSNRGDFRGYCYVEFKEEKSALQALEMDRKSVEGRPMFVSPCVDKSKNPDFKVFRYSTSLEKHKLFISGLPFSCTKEELEEICKAHGTVKDLRLVTNRAGKPKGLAYVEYENESQASQAVMKMDGMTIKENIIKVAISNPPQRKVPEKPETRKAPGGPMLLPQTYGARGKGRTQLSLLPRALQRPSAAAPQAENGPAAAPAVAAPAATEAPKMSNADFAKLFLRK
Turning to B1, the binding entry in assay [2] is “binds”.

B2: ZNF687 (protein, UniProt Q8N1G0 1-1237)
chain: MGDMKTPDFDDLLAAFDIPDIDANEAIHSGPEENEGPGGPGKPEPGVGSESEDTAAASAGDGPGVPAQASDHGLPPPDISVVSVIVKNTVCPEQSEALAGGSAGDGAQAAGVTKEGPVGPHRMQNGFGSPEPSLPGTPHSPAPPSGGTWKEKGMEGKTPLDLFAHFGPEPGDHSDPLPPSAPSPTREGALTPPPFPSSFELAQENGPGMQPPVSSPPLGALKQESCSPHHPQVLAQQGSGSSPKATDIPASASPPPVAGVPFFKQSPGHQSPLASPKVPVCQPLKEEDDDEGPVDKSSPGSPQSPSSGAEAADEDSNDSPASSSSRPLKVRIKTIKTSCGNITRTVTQVPSDPDPPAPLAEGAFLAEASLLKLSPATPTSEGPKVVSVQLGDGTRLKGTVLPVATIQNASTAMLMAASVARKAVVLPGGTATSPKMIAKNVLGLVPQALPKADGRAGLGTGGQKVNGASVVMVQPSKTATGPSTGGGTVISRTQSSLVEAFNKILNSKNLLPAYRPNLSPPAEAGLALPPTGYRCLECGDAFSLEKSLARHYDRRSMRIEVTCNHCARRLVFFNKCSLLLHAREHKDKGLVMQCSHLVMRPVALDQMVGQPDITPLLPVAVPPVSGPLALPALGKGEGAITSSAITTVAAEAPVLPLSTEPPAAPATSAYTCFRCLECKEQCRDKAGMAAHFQQLGPPAPGATSNVCPTCPMMLPNRCSFSAHQRMHKNRPPHVCPECGGNFLQANFQTHLREACLHVSRRVGYRCPSCSVVFGGVNSIKSHIQTSHCEVFHKCPICPMAFKSGPSAHAHLYSQHPSFQTQQAKLIYKCAMCDTVFTHKPLLSSHFDQHLLPQRVSVFKCPSCPLLFAQKRTMLEHLKNTHQSGRLEETAGKGAGGALLTPKTEPEELAVSQGGAAPATEESSSSSEEEEVPSSPEPPRPAKRPRRELGSKGLKGGGGGPGGWTCGLCHSWFPERDEYVAHMKKEHGKSVKKFPCRLCERSFCSAPSLRRHVRVNHEGIKRVYPCRYCTEGKRTFSSRLILEKHVQVRHGLQLGAQSPGRGTTLARGSSARAQGPGRKRRQSSDSCSEEPDSTTPPAKSPRGGPGSGGHGPLRYRSSSSTEQSLMMGLRVEDGAQQCLDCGLCFASPGSLSRHRFISHKKRRGVGKASALGLGDGEEEAPPSRSDPDGGDSPLPASGGPLTCKVCGKSCDSPLNLKTHFRTHGMAFIRARQGAVGDN
For the molecule B2, the binding entry in assay [2] is recorded as “binds”.

B3: NKTR (protein, UniProt P30414 1-1462)
chain: MGAQDRPQCHFDIEINREPVGRIMFQLFSDICPKTCKNFLCLCSGEKGLGKTTGKKLCYKGSTFHRVVKNFMIQGGDFSEGNGKGGESIYGGYFKDENFILKHDRAFLLSMANRGKHTNGSQFFITTKPAPHLDGVHVVFGLVISGFEVIEQIENLKTDAASRPYADVRVIDCGVLATKSIKDVFEKKRKKPTHSEGSDSSSNSSSSSESSSESELEHERSRRRKHKRRPKVKRSKKRRKEASSSEEPRNKHAMNPKGHSERSDTNEKRSVDSSAKREKPVVRPEEIPPVPENRFLLRRDMPVVTAEPEPKIPDVAPIVSDQKPSVSKSGRKIKGRGTIRYHTPPRSRSCSESDDDDSSETPPHWKEEMQRLRAYRPPSGEKWSKGDKLSDPCSSRWDERSLSQRSRSWSYNGYYSDLSTARHSGHHKKRRKEKKVKHKKKGKKQKHCRRHKQTKKRRILIPSDIESSKSSTRRMKSSCDRERSSRSSSLSSHHSSKRDWSKSDKDVQSSLTHSSRDSYRSKSHSQSYSRGSSRSRTASKSSSHSRSRSKSRSSSKSGHRKRASKSPRKTASQLSENKPVKTEPLRATMAQNENVVVQPVVAENIPVIPLSDSPPPSRWKPGQKPWKPSYERIQEMKAKTTHLLPIQSTYSLANIKETGSSSSYHKREKNSESDQSTYSKYSDRSSESSPRSRSRSSRSRSYSRSYTRSRSLASSHSRSRSPSSRSHSRNKYSDHSQCSRSSSYTSISSDDGRRAKRRLRSSGKKNSVSHKKHSSSSEKTLHSKYVKGRDRSSCVRKYSESRSSLDYSSDSEQSSVQATQSAQEKEKQGQMERTHNKQEKNRGEEKSKSERECPHSKKRTLKENLSDHLRNGSKPKRKNYAGSKWDSESNSERDVTKNSKNDSHPSSDKEEGEATSDSESEVSEIHIKVKPTTKSSTNTSLPDDNGAWKSSKQRTSTSDSEGSCSNSENNRGKPQKHKHGSKENLKREHTKKVKEKLKGKKDKKHKAPKRKQAFHWQPPLEFGEEEEEEIDDKQVTQESKEKKVSENNETIKDNILKTEKSSEEDLSGKHDTVTVSSDLDQFTKDDSKLSISPTALNTEENVACLQNIQHVEESVPNGVEDVLQTDDNMEICTPDRSSPAKVEETSPLGNARLDTPDINIVLKQDMATEHPQAEVVKQESSMSESKVLGEVGKQDSSSASLASAGESTGKKEVAEKSQINLIDKKWKPLQGVGNLAAPNAATSSAVEVKVLTTVPEMKPQGLRIEIKSKNKVRPGSLFDEVRKTARLNRRPRNQESSSDEQTPSRDDDSQSRSPSRSRSKSETKSRHRTRSVSYSHSRSRSRSSTSSYRSRSYSRSRSRGWYSRGRTRSRSSSYRSYKSHRTSSRSRSRSSSYDPHSRSRSYTYDSYYSRSRSRSRSQRSDSYHRGRSYNRRSRSCRSYGSDSESDRSYSHHRSPSESSRYS
B3: in assay [2], the binding entry is listed as “binds”.

B4: SMARCAD1 (protein, UniProt Q9H4L7 1-1026)
chain: MNLFNLDRFRFEKRNKIEEAPEATPQPSQPGPSSPISLSAEEENAEGEVSRANTPDSDITEKTEDSSVPETPDNERKASISYFKNQRGIQYIDLSSDSEDVVSPNCSNTVQEKTFNKDTVIIVSEPSEDEESQGLPTMARRNDDISELEDLSELEDLKDAKLQTLKELFPQRSDNDLLKLIESTSTMDGAIAAALLMFGDAGGGPRKRKLSSSSEPYEEDEFNDDQSIKKTRLDHGEESNESAESSSNWEKQESIVLKLQKEFPNFDKQELREVLKEHEWMYTEALESLKVFAEDQDMQYVSQSEVPNGKEVSSRSQNYPKNATKTKLKQKFSMKAQNGFNKKRKKNVFNPKRVVEDSEYDSGSDVGSSLDEDYSSGEEVMEDGYKGKILHFLQDASIGELTLIPQCSQKKAQKITELRPFNSWEALFTKMSKTNGLSEDLIWHCKTLIQERDVVIRLMNKCEDISNKLTKQVTMLTGNGGGWNIEQPSILNQSLSLKPYQKVGLNWLALVHKHGLNGILADEMGLGKTIQAIAFLAYLYQEGNNGPHLIVVPASTIDNWLREVNLWCPTLKVLCYYGSQEERKQIRFNIHSRYEDYNVIVTTYNCAISSSDDRSLFRRLKLNYAIFDEGHMLKNMGSIRYQHLMTINANNRLLLTGTPVQNNLLELMSLLNFVMPHMFSSSTSEIRRMFSSKTKSADEQSIYEKERIAHAKQIIKPFILRRVKEEVLKQLPPKKDRIELCAMSEKQEQLYLGLFNRLKKSINNLEKNTEMCNVMMQLRKMANHPLLHRQYYTAEKLKEMSQLMLKEPTHCEANPDLIFEDMEVMTDFELHVLCKQYRHINNFQLDMDLILDSGKFRVLGCILSELKQKGDRVVLFSQFTMMLDILEVLLKHHQHRYLRLDGKTQISERIHLIDEFNTDMDIFVFLLSTKAGGLGINLTSANVVILHDIDCNPYNDKQAEDRCHRVGQTKEVLVIKLISQGTIEESMLKINQQKLKLEQDMTTVDEGDEGSMPADIATLLKTSMGL
In the case of B4, in assay [2], the binding entry is listed as “binds”.
